Measurements as given in article PMC6295076.
These are yes or no findings as the source states them, for the method shown. Some binding calls cover weakened binding; strength is not graded here.

Target: T1, cyclin G2 (wild-type, yeast two-hybrid bait in pGBKT7) (UniProt Q16589)
T1 sequence: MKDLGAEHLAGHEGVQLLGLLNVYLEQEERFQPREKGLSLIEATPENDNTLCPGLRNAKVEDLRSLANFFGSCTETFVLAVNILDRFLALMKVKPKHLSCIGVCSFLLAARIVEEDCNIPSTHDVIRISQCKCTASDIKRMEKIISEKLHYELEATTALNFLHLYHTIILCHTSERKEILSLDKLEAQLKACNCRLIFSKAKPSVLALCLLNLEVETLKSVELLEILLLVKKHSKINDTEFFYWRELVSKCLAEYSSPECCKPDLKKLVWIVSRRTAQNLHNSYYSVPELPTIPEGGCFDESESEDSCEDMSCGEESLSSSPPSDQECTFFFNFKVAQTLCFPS
Experiment: two-hybrid; cyclin G2 in pGBKT7 as bait, screen of a human fetal brain cDNA library; selection on medium lacking His, Leu and Trp, beta-galactosidase assay; confirmed by retransforming the identified plasmids with the bait

B1: hDpr1 (full-length clone from the human fetal brain cDNA library) (protein, UniProt Q9NYF0 1-836)
chain: MKPSPAGTAKELEPPAPARGEQRTAEPEGRWREKGEADTERQRTRERQEATLAGLAELEYLRQRQELLVRGALRGAGGAGAAAPRAGELLGEAAQRSRLEEKFLEENILLLRKQLNCLRRRDAGLLNQLQELDKQISDLRLDVEKTSEEHLETDSRPSSGFYELSDGASGSLSNSSNSVFSECLSSCHSSTCFCSPLEATLSLSDGCPKSADLIGLLEYKEGHCEDQASGAVCRSLSTPQFNSLDVIADVNPKYQCDLVSKNGNDVYRYPSPLHAVAVQSPMFLLCLTGNPLREEDRLGNHASDICGGSELDAVKTDSSLPSPSSLWSASHPSSSKKMDGYILSLVQKKTHPVRTNKPRTSVNADPTKGLLRNGSVCVRAPGGVSQGNSVNLKNSKQACLPSGGIPSLNNGTFSPPKQWSKESKAEQAESKRVPLPEGCPSGAASDLQSKHLPKTAKPASQEHARCSAIGTGESPKESAQLSGASPKESPSRGPAPPQENKVVQPLKKMSQKNSLQGVPPATPPLLSTAFPVEERPALDFKSEGSSQSLEEAHLVKAQFIPGQQPSVRLHRGHRNMGVVKNSSLKHRGPALQGLENGLPTVREKTRAGSKKCRFPDDLDTNKKLKKASSKGRKSGGGPEAGVPGRPAGGGHRAGSRAHGHGREAVVAKPKHKRTDYRRWKSSAEISYEEALRRARRGRRENVGLYPAPVPLPYASPYAYVASDSEYSAECESLFHSTVVDTSEDEQSNYTTNCFGDSESSVSEGEFVGESTTTSDSEESGGLIWSQFVQTLPIQTVTAPDLHNHPAKTFVKIKASHNLKKKILRFRSGSLKLMTTV
  binding: binds
